Earlier results as cited in patent publication US9675592B2, “Methods and compositions for bacteria infections” (priority 2013, dated 2017).
≈ marks a conversion by molar mass, not a printed value. Where “and” joins values, the source holds several entries; their conditions need not be identical. Identical values can stand only once. At least one compound was matched to its structure with a doubt left.

How the values were obtained:
Settings in all cases: cited from earlier work
[1] = system: hetero VISA isolate, hVISA 2275
[2] = system: vancomycin intermediate resistant Staphylococcus aureus strain, VISA 2283
[3] = system: vanA containing VRSA strain VRS2
[4] = system: vanA containing VRSA strain VRS1
[5] = MIC of the compound in combination with the indicated Van concentration

In the case of `Cc1cc2c(C(C)C)c(O)c(O)c(C=O)c2c(O)c1-c1c(C)cc2c(C(C)C)c(O)c(O)c(C=O)c2c1O` [Gos, Gossypol], the “MIC (in combination) Clo+, Pyr+, Gos+” value ([1]; MIC of the compound in combination with the indicated Van concentration, hVISA 2275) is listed as 1.3 µg/mL, the “MIC compound (Clo, Pyr, Gos)” value ([1]; compound alone, hVISA 2275) is listed as 10.4 µg/mL (≈ 20.1 µM) and the “FICi V + compound” value ([1]; hVISA 2275) is listed as 0.38. For the same molecule, the Synergy category ([1]; hVISA 2275) was “synergistic (An FICi of ≦0.5 defines a synergistic interaction)”, the “potentiation of vancomycin” value ([1]; hVISA) was “fully potentiated” and the “Van FIC” value ([1]; in combination with compound, hVISA 2275) was 0.25. The “Clo FIC, Pyr FIC, Gos FIC” value ([1]; in combination with vancomycin, hVISA 2275) was 0.125, the “MIC (in combination) Van+” value ([1]; vancomycin MIC when used in combination with compound, hVISA 2275) was 1 µg/mL and the “FICi V + compound” value ([2]; VISA 2283) was 0.63 and 0.75. For the same molecule, the Synergy category ([2]; VISA 2283) was “partial (partially potentiated vancomycin (FIC i>0.5 and <1.0))”, the “potentiation of vancomycin” value ([2]; VISA) was “fully potentiated” and the “MIC compound (Clo, Pyr, Gos)” value ([2]; compound alone, VISA 2283) was 10.4 µg/mL (≈ 20.1 µM). The “Van FIC” value ([2]; in combination with compound, VISA 2283) was 0.50 and 0.25, the “MIC (in combination) Van+” value ([2]; vancomycin MIC when used in combination with compound, VISA 2283) was 4 µg/mL and 2 µg/mL and the “MIC (in combination) Clo+, Pyr+, Gos+” value [3, 5] was 1.3 µg/mL. For the same molecule, the “FICi V + compound” value [3] was 0.31, the Synergy category [3] was “synergistic (An FICi of ≦0.5 defines a synergistic interaction)” and the “potentiation of vancomycin” value [3] was “fully potentiated”. The “MIC compound (Clo, Pyr, Gos)” value ([3]; compound alone) was 5.2 µg/mL (≈ 10 µM), the “Van FIC” value ([3]; in combination with compound) was 0.06 and the “Clo FIC, Pyr FIC, Gos FIC” value ([3]; in combination with vancomycin) was 0.25. The “MIC (in combination) Van+” value ([3]; vancomycin MIC when used in combination with compound) was 1 µg/mL, the “MIC (in combination) Clo+, Pyr+, Gos+” value [4, 5] was 1.3 µg/mL and 2.6 µg/mL and the “FICi V + compound” value [4] was 0.08 and 0.13. For the same molecule, the Synergy category [4] was “synergistic (An FICi of ≦0.5 defines a synergistic interaction)”, the “potentiation of vancomycin” value [4] was “fully potentiated” and the “MIC compound (Clo, Pyr, Gos)” value ([4]; compound alone) was 20.8 µg/mL (≈ 40.1 µM). For the same molecule, the “Clo FIC, Pyr FIC, Gos FIC” value ([4]; in combination with vancomycin) was 0.0625 and 0.125.
